PubChem BioAssay AID720505 – Drosophila RNAi Screening Center – 2013
The deposit covers about 20,000 reagents; shown is a random part of those with a known target gene and a result. Over the whole deposit, about 2,100 (10%) got an active call. 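Raw plate signals without normalisation; calls rest on control-based scores that were not deposited; replicate 2 separates called from uncalled poorly.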 The record does not give: the amount of reagent, the time to read-out.

Test: 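Genes needed for store-operated calcium entry in fly cells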 (primary screen)
System: Drosophila S2R+ cells
Reagent: long dsRNA against Drosophila genes
Conditions: thapsigargin (2 µM) in calcium-free buffer to empty internal stores, then 2 mM calcium added back
Detection: 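Fluo-4 signal in 384-well plates read on a FLIPR after thapsigargin (2 µM, calcium-free) store depletion and 2 mM calcium add-back; unnormalised mean endpoint per well; screen run twice, selected wells retested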
Reading the numbers: calcium signal and retest calcium signal: higher = more calcium entry after store depletion
Rule for the call: 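About 1500 genes called as lowering calcium entry, by varying amounts, judged against per-plate control wells with STIM1 as positive and Rho1 as negative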
Meaning of the calls: active = called as lowering calcium entry; inactive = not called

Naus [DRSC06011]
- calcium signal, replicate 1: 131
- calcium signal, replicate 2: 107
- call: inactive

Naus [DRSC06469]
- calcium signal, replicate 1: 209
- calcium signal, replicate 2: 124
- call: inactive

Sox21b [DRSC10025]
- calcium signal, replicate 1: 63.3
- calcium signal, replicate 2: 104
- retest calcium signal, replicate 1: 163
- retest calcium signal, replicate 2: 141
- call: active

Sox21b [DRSC10634]
- calcium signal, replicate 1: 97.6
- calcium signal, replicate 2: 152
- call: inactive

Sox21b [DRSC22788]
- calcium signal, replicate 1: 118
- calcium signal, replicate 2: 189
- call: inactive

Sox21b [DRSC23005]
- calcium signal, replicate 1: 174
- calcium signal, replicate 2: 142
- call: inactive

CG1695 [DRSC20538]
- calcium signal, replicate 1: 160
- calcium signal, replicate 2: 100
- call: inactive

Iswi [DRSC07446]
- calcium signal, replicate 1: 79
- calcium signal, replicate 2: 135
- call: inactive

Crtp [DRSC04604]
- calcium signal, replicate 1: 109
- calcium signal, replicate 2: 189
- call: inactive

Grl40a [DRSC03677]
- calcium signal, replicate 1: 91.4
- calcium signal, replicate 2: 5185
- call: inactive

CG9514 [DRSC20190]
- calcium signal, replicate 1: 122
- calcium signal, replicate 2: 134
- call: inactive

CG9514 [DRSC20191]
- calcium signal, replicate 1: 120
- calcium signal, replicate 2: 156
- call: inactive

Galphas [DRSC04616]
- calcium signal, replicate 1: 152
- calcium signal, replicate 2: 118
- call: inactive

Eig71Ef [DRSC11153]
- calcium signal, replicate 1: 129
- calcium signal, replicate 2: 134
- call: inactive

gas [DRSC04521]
- calcium signal, replicate 1: 89.3
- calcium signal, replicate 2: 119
- call: inactive

Idgf2 [DRSC03350]
- calcium signal, replicate 1: 105
- calcium signal, replicate 2: 102
- call: inactive

CG8399 [DRSC07163]
- calcium signal, replicate 1: 150
- calcium signal, replicate 2: 150
- call: inactive

Next part, starting with the last 3 of the part before.
gas [DRSC04521]
- calcium signal, replicate 1: 89.3
- calcium signal, replicate 2: 119
- call: inactive

Idgf2 [DRSC03350]
- calcium signal, replicate 1: 105
- calcium signal, replicate 2: 102
- call: inactive

CG8399 [DRSC07163]
- calcium signal, replicate 1: 150
- calcium signal, replicate 2: 150
- call: inactive

Pdh [DRSC11249]
- calcium signal, replicate 1: 110
- calcium signal, replicate 2: 105
- call: inactive

PpD6 [DRSC00774]
- calcium signal, replicate 1: 116
- calcium signal, replicate 2: 123
- call: inactive

PpD6 [DRSC23331]
- calcium signal, replicate 1: 87.6
- calcium signal, replicate 2: 163
- call: inactive

CG9294 [DRSC04537]
- calcium signal, replicate 1: 188
- calcium signal, replicate 2: 127
- call: inactive

Gr61a [DRSC08358]
- calcium signal, replicate 1: 107
- calcium signal, replicate 2: 110
- call: inactive

CG9775 [DRSC12330]
- calcium signal, replicate 1: 30.8
- calcium signal, replicate 2: 95.7
- call: active

CG9775 [DRSC22667]
- calcium signal, replicate 1: 105
- calcium signal, replicate 2: 101
- call: inactive

Cyp6a14 [DRSC07376]
- calcium signal, replicate 1: 146
- calcium signal, replicate 2: 124
- call: inactive

CG10300 [DRSC14225]
- calcium signal, replicate 1: 132
- calcium signal, replicate 2: 137
- call: inactive

Dpm1 [DRSC02018]
- calcium signal, replicate 1: 143
- calcium signal, replicate 2: 103
- call: inactive

CSN8 [DRSC02257]
- calcium signal, replicate 1: 141
- calcium signal, replicate 2: 217
- call: inactive
